Test results: article PMC5342496
These are yes or no findings as the source states them, for the method shown. In cells and extracts the contact can be indirect. Some results given as binding are weak or reduced against the parent protein; the word gives no strength.

By UniProt entry, the sequences of proteins in these tests, tags left out.
UniProt P17480: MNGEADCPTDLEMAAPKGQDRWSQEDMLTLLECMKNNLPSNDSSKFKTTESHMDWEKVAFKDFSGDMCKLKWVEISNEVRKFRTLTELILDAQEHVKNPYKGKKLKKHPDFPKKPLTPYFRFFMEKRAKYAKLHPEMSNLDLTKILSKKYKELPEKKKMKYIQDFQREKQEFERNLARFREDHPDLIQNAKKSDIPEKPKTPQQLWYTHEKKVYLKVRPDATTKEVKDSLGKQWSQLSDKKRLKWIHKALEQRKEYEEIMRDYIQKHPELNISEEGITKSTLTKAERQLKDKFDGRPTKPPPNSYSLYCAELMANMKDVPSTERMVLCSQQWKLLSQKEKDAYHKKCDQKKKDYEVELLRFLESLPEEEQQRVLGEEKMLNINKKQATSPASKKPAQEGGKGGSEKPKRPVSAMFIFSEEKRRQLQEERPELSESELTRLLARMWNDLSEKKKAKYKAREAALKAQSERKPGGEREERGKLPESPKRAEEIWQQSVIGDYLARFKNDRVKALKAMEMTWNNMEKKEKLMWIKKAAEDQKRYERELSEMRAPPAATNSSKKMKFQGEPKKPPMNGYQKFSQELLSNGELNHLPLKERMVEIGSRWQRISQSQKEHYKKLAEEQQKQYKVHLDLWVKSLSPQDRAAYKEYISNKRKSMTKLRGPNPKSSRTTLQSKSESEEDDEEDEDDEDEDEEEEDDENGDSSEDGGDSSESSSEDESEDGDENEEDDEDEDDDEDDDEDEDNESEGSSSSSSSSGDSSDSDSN
UniProt Q05195: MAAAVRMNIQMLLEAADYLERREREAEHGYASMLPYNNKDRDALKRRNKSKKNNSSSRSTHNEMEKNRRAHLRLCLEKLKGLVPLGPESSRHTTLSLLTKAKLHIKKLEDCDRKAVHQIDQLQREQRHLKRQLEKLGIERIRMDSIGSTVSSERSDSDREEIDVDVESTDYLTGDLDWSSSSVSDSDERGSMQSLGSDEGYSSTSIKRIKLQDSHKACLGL

Key:
UBF-Flag = UBF-Flag (UniProt P17480); experiment: co-IP; cells transfected with UBF-Flag expression vector; data not shown
[1] = target: UBF (Upstream Binding Factor) (human (endogenous in HeLa)) (UniProt P17480); experiment: co-IP; lysates of HeLa cells serum-deprived for 48 h; immunoprecipitation with anti-UBF antibodies, immunoblot against MXD1 and UBF
[2] = target: UBF (Upstream Binding Factor) (human (endogenous in HeLa)) (UniProt P17480); experiment: proximity ligation; in situ PLA (Duolink in situ Red Starter kit Mouse/Rabbit) in growing HeLa cells with pairs of primary antibodies; signals per nucleus quantified with ImageJ

Measured: binding

MXD1 (from UniProt Q05195 1-221)
binds: all assays above
